The target in this assay is Dylight-650 labelled recombinant BCMA (human) (UniProt Q02223). Description: flow cytometry of CAR T cells stained with labelled recombinant BCMA.

Sequences of proteins named here, by UniProt entry; tags and fusion partners are left off. Residues count along the entry.
UniProt Q02223, residues 1-54: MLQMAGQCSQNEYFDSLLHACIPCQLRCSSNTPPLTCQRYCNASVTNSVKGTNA

Results are given in words; binding and its absence hold for the method and conditions named. Some binding calls cover weakened binding; strength is not graded here.

B1: BCMA/TACI Dual Binder #3 CAR (CAR only) (protein)
chain: DIQLTQSPSSLSASVGDRVTITCRASQSISLYLNWYQQKPGKAPKLLIYAASSLQSGVPSRFSGSGSGTDFTLTISSLQPEDFATYYCQQVAVAPWTFGGGTKVEIKGSTSGSGKPGSGEGSTKGQVQLVQSGAEVKKPGSSVKVSCKASGGTFEHYAISWVRQAPGQGLEWMGGIIPILGRANYAQKFQGRVTITADESTSTAYMELSSLRSEDTAVYYCARDRSWEGSPYMYYGMDVWGQGTMVTVSSGSLDNEKSNGTIIHVKGKHLCPSPLFPGPSKPFWVLVVVGGVLACYSLLVTVAFIIFWVRSKRSRLLHSDYMNMTPRRPGPTRKHYQPYAPPRDFAAYRSLRVKFSRSADAPAYQQGQNQLYNELNLGRREEYDVLDKRRGRDPEMGGKPRRKNPQEGLYNELQKDKMAEAYSEIGMKGERRRGKGHDGLYQGLSTATKDTYDALHMQALPPR
For B1, the binding result is given as “binds”.

B2: BCMA/TACI Dual Binder #1 CAR (CAR only) (protein)
chain: DIQMTQSPSSLSASVGDRVTITCRASQSISSYLNWYQQKPGKAPKLLIYAASSLQSGVPSRFSGSGSGTDFTLTISSLQPEDFATYYCQQSHIAPWTFGGGTKVEIKGSTSGSGKPGSGEGSTKGQVQLVQSGAEVKKPGSSVKVSCKASGGTFADYAISWVRQAPGQGLEWMGGIIPILGRANYAQKFQGRVTITADESTSTAYMELSSLRSEDTAVYYCARDRDSTSLPYNHYYMDVWGKGTTVTVSSGSLDNEKSNGTIIHVKGKHLCPSPLFPGPSKPFWVLVVVGGVLACYSLLVTVAFIIFWVRSKRSRLLHSDYMNMTPRRPGPTRKHYQPYAPPRDFAAYRSLRVKFSRSADAPAYQQGQNQLYNELNLGRREEYDVLDKRRGRDPEMGGKPRRKNPQEGLYNELQKDKMAEAYSEIGMKGERRRGKGHDGLYQGLSTATKDTYDALHMQALPPR
B2: the binding entry is “binds”.

(Values after patent US20220354892A1.)
